Reference: PubChem BioAssay AID686938 (Drosophila RNAi Screening Center, 2013)
Assay: 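Fly genes required for calcium entry once internal stores are emptied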 (primary screen). System: Drosophila S2R+ cells. Knock-down reagent: long dsRNA against Drosophila genes, about 0.25 µg dsRNA per well, roughly 10,000 cells. Timing: 5 days of knock-down before the calcium assay. Conditions: thapsigargin (SERCA pump blocker) to empty calcium stores; entry signal taken 4 min after adding it. Measurement: 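Duplicate raw fluo-4 intensities per well from a plate reader, at rest and four minutes after thapsigargin emptied calcium stores; entry-to-rest ratio filled for only some wells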. Scale: calcium entry signal: higher = stronger calcium signal after store depletion; entry to resting ratio: higher = more calcium entry relative to resting level; resting calcium signal: higher = higher resting calcium signal. Active means: 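Hit if the duplicate-averaged plate z-score for entry over resting signal is under −3; wells with weak total dye signal (Fmax z < −2) or more than 5 off-targets removed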. Calls: active = strongly reduced calcium entry; inactive = no strong reduction.
The deposit covers about 23,000 reagents; this is an unselected part of those with a known target gene and a result. Of all reagents, 75 (0.33%) were called active. 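Raw plate signals without normalisation; calls rest on plate z-scores that were not deposited; ratio present for only 364 wells.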 No sequences are given here. The record does not give: the dose of the treatment.

gene knocked down,dsRNA,"calcium entry signal, replicate 1 (fluorescence units)","calcium entry signal, replicate 2 (fluorescence units)",entry to resting ratio,"resting calcium signal, replicate 1 (fluorescence units)","resting calcium signal, replicate 2 (fluorescence units)",Call
CG30269,DRSC04158,3.60e7,4.42e7,,1.96e7,2.00e7,inactive
CG16852,DRSC01876,4.10e7,2.62e7,,1.93e7,1.25e7,inactive
CG13040,DRSC09921,3.11e7,3.60e7,,1.47e7,1.45e7,inactive
Cyp6t2Psi,DRSC01840,1.49e7,2.92e7,,6.94e6,2.56e7,inactive
CG18766,DRSC15936,3.53e7,4.54e7,,1.63e7,2.06e7,inactive
Mtk,DRSC07475,3.36e7,3.49e7,,1.75e7,1.68e7,inactive
iPLA2-VIA,DRSC10699,4.41e7,3.66e7,,2.56e7,1.47e7,inactive
CG3597,DRSC00617,3.54e7,3.02e7,,1.69e7,1.37e7,inactive
disco-r,DRSC20173,3.48e7,3.45e7,,1.79e7,1.53e7,inactive
disco-r,DRSC20174,3.14e7,3.04e7,,1.62e7,1.34e7,inactive
CG15221,DRSC19659,3.84e7,4.44e7,,1.96e7,2.10e7,inactive
Su(var)205,DRSC03446,4.84e7,,,2.95e7,,inactive
CG2924,DRSC18525,3.93e7,4.36e7,,1.76e7,1.91e7,inactive

Looked up above.
CG15221 [DRSC19659], calcium entry signal, replicate 2 (fluorescence units): 4.44e7
Su(var)205 [DRSC03446], Call → inactive
Under “resting calcium signal, replicate 2 (fluorescence units)”, Mtk [DRSC07475] is entered as 1.68e7
disco-r [DRSC20174], Call → inactive

The results go on.
gene knocked down,dsRNA,"calcium entry signal, replicate 1 (fluorescence units)","calcium entry signal, replicate 2 (fluorescence units)",entry to resting ratio,"resting calcium signal, replicate 1 (fluorescence units)","resting calcium signal, replicate 2 (fluorescence units)",Call
CG9782,DRSC19145,3.25e7,4.59e7,,1.72e7,2.25e7,inactive
CG9782,DRSC20209,2.99e7,2.71e7,,1.56e7,1.21e7,inactive
CG14961,DRSC08420,2.83e7,3.80e7,,1.55e7,1.69e7,inactive
Galphai,DRSC11168,4.39e7,3.55e7,,2.83e7,1.51e7,inactive
CG33476,DRSC22888,5.06e7,3.56e7,,2.97e7,1.67e7,inactive
cactin,DRSC20576,2.48e7,2.43e7,,1.55e7,1.38e7,inactive
wit,DRSC08741,4.74e7,3.29e7,,3.04e7,1.34e7,inactive
CG8461,DRSC16424,3.01e7,3.21e7,,1.39e7,1.38e7,inactive
wal,DRSC07717,2.73e7,2.95e7,,1.31e7,1.44e7,inactive
moody,DRSC18515,6.66e7,6.48e7,2.2,3.06e7,2.77e7,inactive
P32,DRSC06988,3.27e7,2.90e7,,1.54e7,1.49e7,inactive
